No constants are given. Whether binding was seen depends on the method and setting. Binding seen in cells or lysates may run through a third protein. These calls come from enrichment with a bait or labelling near it, and not all partners need be listed. Where a sequence is shown, tags or fusion partners need not be part of it.

Amino acid sequences for entries named in this document (tags omitted). Residues count along the entry.
UniProt Q8I4U5: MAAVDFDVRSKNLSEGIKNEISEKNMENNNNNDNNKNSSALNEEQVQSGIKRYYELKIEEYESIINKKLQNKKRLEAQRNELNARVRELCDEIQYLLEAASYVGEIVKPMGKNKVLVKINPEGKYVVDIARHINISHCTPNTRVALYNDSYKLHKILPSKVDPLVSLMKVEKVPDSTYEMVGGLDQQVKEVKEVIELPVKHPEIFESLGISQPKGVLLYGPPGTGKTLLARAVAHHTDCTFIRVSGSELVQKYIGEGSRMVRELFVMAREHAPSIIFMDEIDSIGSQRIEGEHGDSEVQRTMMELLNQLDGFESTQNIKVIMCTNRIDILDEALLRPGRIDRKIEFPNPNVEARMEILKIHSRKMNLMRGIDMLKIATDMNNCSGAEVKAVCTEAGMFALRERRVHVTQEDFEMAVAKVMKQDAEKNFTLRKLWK
UniProt Q7KQK6: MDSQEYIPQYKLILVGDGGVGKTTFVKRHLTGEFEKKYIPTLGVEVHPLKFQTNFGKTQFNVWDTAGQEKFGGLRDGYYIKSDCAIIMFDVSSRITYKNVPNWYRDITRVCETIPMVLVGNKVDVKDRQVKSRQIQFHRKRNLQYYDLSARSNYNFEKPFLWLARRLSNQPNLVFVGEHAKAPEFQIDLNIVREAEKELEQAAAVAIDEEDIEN
UniProt Q8ILV2: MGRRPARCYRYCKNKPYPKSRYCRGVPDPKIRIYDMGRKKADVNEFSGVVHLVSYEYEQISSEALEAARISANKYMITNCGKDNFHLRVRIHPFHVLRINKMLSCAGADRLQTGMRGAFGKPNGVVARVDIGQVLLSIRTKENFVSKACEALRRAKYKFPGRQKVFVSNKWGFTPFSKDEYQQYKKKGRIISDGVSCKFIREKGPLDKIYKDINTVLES
UniProt Q8IKW5: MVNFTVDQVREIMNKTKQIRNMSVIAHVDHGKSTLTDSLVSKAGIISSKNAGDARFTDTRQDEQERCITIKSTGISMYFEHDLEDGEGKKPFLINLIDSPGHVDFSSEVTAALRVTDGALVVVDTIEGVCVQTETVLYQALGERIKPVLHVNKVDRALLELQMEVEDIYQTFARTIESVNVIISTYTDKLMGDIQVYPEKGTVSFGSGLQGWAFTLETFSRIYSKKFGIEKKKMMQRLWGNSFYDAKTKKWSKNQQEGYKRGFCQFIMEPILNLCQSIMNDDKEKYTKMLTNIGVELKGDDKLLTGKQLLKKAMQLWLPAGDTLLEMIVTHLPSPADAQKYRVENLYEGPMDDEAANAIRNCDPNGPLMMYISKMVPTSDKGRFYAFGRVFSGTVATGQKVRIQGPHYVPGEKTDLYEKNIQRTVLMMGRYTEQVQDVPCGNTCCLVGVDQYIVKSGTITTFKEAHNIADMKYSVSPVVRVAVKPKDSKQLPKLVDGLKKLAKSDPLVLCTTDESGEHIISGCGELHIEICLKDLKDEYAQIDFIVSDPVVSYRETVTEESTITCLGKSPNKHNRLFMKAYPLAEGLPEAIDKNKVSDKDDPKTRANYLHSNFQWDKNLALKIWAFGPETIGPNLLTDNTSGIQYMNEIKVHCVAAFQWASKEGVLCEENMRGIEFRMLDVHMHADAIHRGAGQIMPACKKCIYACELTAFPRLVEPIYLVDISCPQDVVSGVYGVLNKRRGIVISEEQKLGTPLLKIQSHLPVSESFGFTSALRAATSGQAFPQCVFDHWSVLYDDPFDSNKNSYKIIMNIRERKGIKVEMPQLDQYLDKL
UniProt Q8I0U8, residues 20-1694: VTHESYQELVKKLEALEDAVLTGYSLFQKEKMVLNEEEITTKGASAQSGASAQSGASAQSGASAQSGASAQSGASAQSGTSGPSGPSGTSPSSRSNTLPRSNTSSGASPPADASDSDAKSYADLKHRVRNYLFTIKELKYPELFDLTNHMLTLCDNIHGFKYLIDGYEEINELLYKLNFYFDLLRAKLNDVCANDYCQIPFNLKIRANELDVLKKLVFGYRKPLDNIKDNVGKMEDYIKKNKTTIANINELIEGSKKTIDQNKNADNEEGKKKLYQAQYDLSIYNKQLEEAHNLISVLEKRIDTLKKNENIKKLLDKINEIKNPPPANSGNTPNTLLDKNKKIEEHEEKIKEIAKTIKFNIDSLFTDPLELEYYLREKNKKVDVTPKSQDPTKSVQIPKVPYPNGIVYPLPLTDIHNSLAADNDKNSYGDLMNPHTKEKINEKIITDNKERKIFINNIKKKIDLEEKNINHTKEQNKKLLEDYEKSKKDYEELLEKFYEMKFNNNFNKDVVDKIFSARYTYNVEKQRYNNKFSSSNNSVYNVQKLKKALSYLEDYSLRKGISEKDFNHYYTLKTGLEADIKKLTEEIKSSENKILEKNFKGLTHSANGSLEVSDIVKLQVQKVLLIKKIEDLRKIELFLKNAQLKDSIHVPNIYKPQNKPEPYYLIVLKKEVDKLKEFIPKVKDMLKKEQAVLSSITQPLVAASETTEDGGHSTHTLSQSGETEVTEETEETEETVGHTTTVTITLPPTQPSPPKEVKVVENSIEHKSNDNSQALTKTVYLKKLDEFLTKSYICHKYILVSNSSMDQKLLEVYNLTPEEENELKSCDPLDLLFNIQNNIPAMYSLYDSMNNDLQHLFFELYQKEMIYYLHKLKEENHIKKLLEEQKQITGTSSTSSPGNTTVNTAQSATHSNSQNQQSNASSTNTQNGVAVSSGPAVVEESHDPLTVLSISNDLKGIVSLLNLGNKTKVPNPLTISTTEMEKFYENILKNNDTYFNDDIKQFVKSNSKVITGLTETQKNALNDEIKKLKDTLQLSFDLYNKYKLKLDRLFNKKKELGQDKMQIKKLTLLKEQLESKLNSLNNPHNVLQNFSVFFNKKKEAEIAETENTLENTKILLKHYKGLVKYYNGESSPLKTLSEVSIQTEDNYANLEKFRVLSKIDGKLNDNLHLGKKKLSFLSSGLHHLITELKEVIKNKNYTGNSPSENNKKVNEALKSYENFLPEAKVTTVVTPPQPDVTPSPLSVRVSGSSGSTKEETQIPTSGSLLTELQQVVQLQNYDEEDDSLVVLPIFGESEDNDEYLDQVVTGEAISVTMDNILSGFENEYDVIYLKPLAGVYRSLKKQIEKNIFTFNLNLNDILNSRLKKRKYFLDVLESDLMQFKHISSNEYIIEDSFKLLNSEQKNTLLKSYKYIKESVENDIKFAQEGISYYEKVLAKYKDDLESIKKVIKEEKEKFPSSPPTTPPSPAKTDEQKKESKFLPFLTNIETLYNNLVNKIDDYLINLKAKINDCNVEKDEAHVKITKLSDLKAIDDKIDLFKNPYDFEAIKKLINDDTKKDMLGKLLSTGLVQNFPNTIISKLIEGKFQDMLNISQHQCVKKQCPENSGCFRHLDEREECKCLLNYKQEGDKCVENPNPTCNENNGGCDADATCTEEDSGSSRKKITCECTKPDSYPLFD
UniProt Q8IKK7: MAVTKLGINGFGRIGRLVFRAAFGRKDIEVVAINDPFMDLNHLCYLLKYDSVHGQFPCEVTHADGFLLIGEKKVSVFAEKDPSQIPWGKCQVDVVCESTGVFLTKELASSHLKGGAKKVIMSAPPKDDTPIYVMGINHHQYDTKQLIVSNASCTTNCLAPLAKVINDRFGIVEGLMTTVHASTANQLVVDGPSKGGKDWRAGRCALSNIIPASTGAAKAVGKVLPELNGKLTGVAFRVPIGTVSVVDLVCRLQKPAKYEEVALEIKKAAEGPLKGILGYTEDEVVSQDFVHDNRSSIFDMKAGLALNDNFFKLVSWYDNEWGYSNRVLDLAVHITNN

The target of the assay is T1, GFP::PfK13 (Plasmodium falciparum Kelch 13 protein, N-terminally tagged with 2xFKBP-GFP-2xFKBP) (Plasmodium falciparum) (UniProt Q8IDQ2).
T1 sequence: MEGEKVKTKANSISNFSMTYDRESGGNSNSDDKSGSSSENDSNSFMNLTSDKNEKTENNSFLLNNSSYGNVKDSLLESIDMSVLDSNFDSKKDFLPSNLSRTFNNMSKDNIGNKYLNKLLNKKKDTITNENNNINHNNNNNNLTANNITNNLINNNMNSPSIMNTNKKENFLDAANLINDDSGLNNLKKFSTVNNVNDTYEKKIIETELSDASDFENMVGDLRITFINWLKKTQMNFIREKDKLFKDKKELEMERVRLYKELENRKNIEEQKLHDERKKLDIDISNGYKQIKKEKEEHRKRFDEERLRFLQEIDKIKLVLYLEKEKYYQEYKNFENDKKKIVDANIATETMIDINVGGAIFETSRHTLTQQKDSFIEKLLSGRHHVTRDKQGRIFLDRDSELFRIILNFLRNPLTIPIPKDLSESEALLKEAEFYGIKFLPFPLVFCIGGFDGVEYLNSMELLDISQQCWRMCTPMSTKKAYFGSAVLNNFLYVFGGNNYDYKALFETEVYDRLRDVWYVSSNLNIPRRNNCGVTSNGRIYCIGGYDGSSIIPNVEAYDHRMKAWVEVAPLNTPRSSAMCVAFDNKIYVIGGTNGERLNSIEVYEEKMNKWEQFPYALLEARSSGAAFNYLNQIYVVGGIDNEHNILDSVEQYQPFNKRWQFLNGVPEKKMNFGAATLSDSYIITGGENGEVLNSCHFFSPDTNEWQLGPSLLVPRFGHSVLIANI
The assay can be described thus: affinity purification with mass spectrometry; GFP-Trap beads incubated with lysate of asexual blood-stage GFP::PfK13 parasites (30 mM Tris pH 7.5, 150 mM NaCl, 0.5 mM EDTA, 0.5% NP-40) for 4 h or overnight at 4°C; 3D7 parasites as control; LC-MS/MS; proteins common to three biological replicates, FDR 1%.
Consider “DNA/RNA-binding protein Alba 1 (from UniProt Q8IAX8)”, for which the binding result is listed as “binds”.

As for “26S protease regulatory subunit 8 (from UniProt Q8I4U5 1-435)”, the binding result is listed as “binds”.

As to “Elongation factor 1-alpha (from UniProt Q8I0P6 1-443)”, the binding entry was “binds”.

Regarding “40S ribosomal protein S11 (from UniProt A0A5K1K925 1-151)”, the binding result is recorded as “binds”.

For the substance “GTP-binding nuclear protein (from UniProt Q7KQK6 1-214)”, the binding result was “binds”.

For “60S ribosomal protein L10 (from UniProt Q8ILV2 1-219)”, the binding result is “binds”.

Take “40S ribosomal protein S15A (from UniProt O77395 1-130)”: the binding entry is recorded as “binds”.

On to “Parasitophorous vacuolar protein 1 (from UniProt Q8II72)”, for which the binding result was “binds”.

Take “Elongation factor 2 (from UniProt Q8IKW5 1-832)”: the binding entry is listed as “binds”.

For “Merozoite surface protein 1 (from UniProt Q8I0U8 20-1694)”, the binding entry is “binds”.

Regarding Plasmepsin II (from UniProt Q8I6V3), the binding entry is given as “binds”.

Take “Glyceraldehyde-3-phosphate dehydrogenase (from UniProt Q8IKK7 1-337)”: the binding entry was “binds”.

In the case of “DNA/RNA-binding protein Alba 3 (from UniProt Q8IJX8)”, the binding result is on record as “binds”.
